Measurements published in the supplement of paper PMC3334620.
Over roughly 33,000 sequences, “E-score (-0.5 to 0.5)” has its median near -0.015; the highest 2% begin near 0.3. The list shows a part of the results.

target: T1, Abf1 (UniProt P14164); experiment: PBM E-score (8-mer binding enrichment) (E-score (-0.5 to 0.5)); higher = stronger / more preferred TF binding; conditions: protein concentration: 200 nM; construct: GST-full length
T1 sequence: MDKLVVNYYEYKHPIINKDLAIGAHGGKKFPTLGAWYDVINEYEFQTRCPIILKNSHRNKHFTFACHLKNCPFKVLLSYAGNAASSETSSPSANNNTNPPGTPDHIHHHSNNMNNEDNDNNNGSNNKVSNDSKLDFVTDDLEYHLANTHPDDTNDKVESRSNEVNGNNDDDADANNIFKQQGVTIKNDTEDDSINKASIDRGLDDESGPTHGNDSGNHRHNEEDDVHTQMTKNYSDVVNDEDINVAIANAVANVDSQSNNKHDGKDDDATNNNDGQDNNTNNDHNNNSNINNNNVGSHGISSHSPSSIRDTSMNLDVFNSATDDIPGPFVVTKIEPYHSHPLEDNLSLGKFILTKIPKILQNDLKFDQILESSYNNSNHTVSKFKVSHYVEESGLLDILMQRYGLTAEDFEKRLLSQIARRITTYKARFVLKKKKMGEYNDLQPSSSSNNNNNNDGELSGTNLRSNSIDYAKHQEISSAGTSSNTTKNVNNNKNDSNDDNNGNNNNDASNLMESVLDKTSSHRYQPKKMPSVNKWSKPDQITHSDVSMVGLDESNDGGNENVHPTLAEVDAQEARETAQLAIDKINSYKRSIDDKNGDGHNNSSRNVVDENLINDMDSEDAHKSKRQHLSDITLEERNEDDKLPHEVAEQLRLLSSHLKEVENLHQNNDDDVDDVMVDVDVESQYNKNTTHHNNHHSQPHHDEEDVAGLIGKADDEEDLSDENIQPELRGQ
In short: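 Masliner-normalised scans of fluorescent anti-GST signal were the basis for scoring. That signal came from GST-tagged yeast transcription factors applied at about 100-200 nM to double-stranded universal all-10-mer Agilent arrays on fresh or once-stripped slides. Each ungapped eight-base word, pooled with its reverse complement, received an E-score from the Universal PBM Analysis Suite.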

Sequence	PBM E-score
ACCGTACA	0.327
AACGACGA	0.346
GAGAGCTA	-0.051
CTGACTAC	-0.02
ACTAAACG	0.165
GTACGCCA	-0.173
ATTGACCC	0.0512
ACGGCGCT	0.09
ACTTAAGG	-0.0317
ATAGGTGG	-0.0214
ACTCAACG	0.161
CCTAAATA	0.0526
AGCACCTC	-0.158
ACCCCAAA	-0.0257
GGGGCCCA	-0.256
CAAATCAG	0.0917
TACGACGA	0.329
GGCTCATA	-0.186
CTGATAGC	-0.128
CATTCCGA	-0.00972
AAACAAAC	0.0259
AAGATCTG	-0.15
CTCCCAAA	0.126
AAAATGGT	0.166
CGCATCAA	0.081

Sequence	PBM E-score
ATATTTCA	0.23
AACAAGGG	-0.338
CACGTCCC	-0.0203
AGGTTGAA	0.0563
AAGAGCTG	-0.176
AAATACCG	0.0575
ATGTCCTA	0.143
ACATCCCT	0.0803
TGTAGGAA	-0.084
CCTGTTTC	-0.0494
CCGAAATA	0.12
ATTGAAAG	-0.00524
AGCAGTCA	-0.114
AGGCCCAA	-0.146
TTATAGAA	0.122
CGCCACAG	-0.0345
CCTGCAGC	-0.0974
CCGTTACA	0.192
GCCGCATA	0.0431
TATCCATA	0.126
ACTTTTGG	0.00974
AAACCGTG	0.111
TGCCAACA	0.114
TATCGGGA	-0.151
AAATAGAT	0.146

Sequence	PBM E-score
AGTTAGTG	-0.111
ACACGGCT	0.076
AATTGCTG	0.136
ATACCAAC	0.0466
GTCAGACA	-0.0287
ATGCGGCC	-0.109
GCCATGAA	-0.0667
CATACGCG	-0.0647
CCCTTGCA	-0.341
GGAGACGA	0.187
CCAATGAC	0.094
CGGCCACC	-0.142
TAACCCCA	-0.223
GCATCGAC	0.104
TCCTAAAA	0.118
CACCAGAA	-0.0535
AGGACACA	0.0154
GATGACGA	0.265
CTTCCGAA	0.0241
ATCAGCTG	0.153
CCAGGCGA	-0.161
GATCGTTA	0.224
CTAGAAGA	-0.116
ACCGGCCC	-0.286
AAGCTCCA	-0.28

Sequence	PBM E-score
TTAGGAAA	0.00982
CATTCCAA	0.0167
CGCCAGAA	-0.0306
CATAAAGC	-0.057
ATACACAG	-0.095
GGGTTATA	-0.105
CGGGTATC	0.0428
GCGGTCGA	0.042
TGGGGCAA	-0.281
AGGAATAC	-0.2
ATATTTAG	0.207
AATTTCGC	-0.0531
ATACGGCG	0.384
ATAGCATC	-0.029
GATCCGGA	-0.127
GAAAATCA	0.291
CAGGACAA	0.231
AGTCATGC	0.116
CCCACGTA	0.0479
CCGTACGA	0.451
CCGGCCGC	-0.279
AGGAAATA	0.221
ACACTCAG	0.116
CTTCACCA	-0.178
CTCTAGGA	-0.15

Sequence	PBM E-score
CTGAAATC	0.0623
AAAAAAGG	0.0797
AATTGTAT	0.158
ATTTTGGA	0.118
CACTTCCC	0.0785
ACAGTGTC	-0.155
TGTCAAAA	0.139
AGGAATCA	0.111
AGCCCTGA	0.0154
GTTGTGTA	0.00481
GAGTCGTA	0.192
ACTGAATC	-0.0997
GGCCCGTA	0.0104
AATTCTAT	-0.0344
CCTTTGCG	-0.187
AGGAACCA	-0.149
CCACCCCC	-0.299
CTTGTATA	-0.0557
CAAGAAAG	-0.00869
CCAATCAC	0.0912
TCCCGGCA	-0.134
TCTAACAA	0.0754
ATGTGCTG	0.0573
AGTACTGC	-0.239
GTCTGTGA	-0.00952

Shown as a markdown table: entries from further up.

| Sequence | PBM E-score |
| --- | --- |
| AACGACGA | 0.346 |
| GAGAGCTA | -0.051 |
| GGGGCCCA | -0.256 |
| CAAATCAG | 0.0917 |
| CTGATAGC | -0.128 |
| CATTCCGA | -0.00972 |
| AAGATCTG | -0.15 |
| CTCCCAAA | 0.126 |
| AAAATGGT | 0.166 |
| ATATTTCA | 0.23 |
| AACAAGGG | -0.338 |
| TTATAGAA | 0.122 |
| CCTGCAGC | -0.0974 |
| CCGTTACA | 0.192 |
| TATCCATA | 0.126 |
| AATTGCTG | 0.136 |
| ATGCGGCC | -0.109 |
| GGAGACGA | 0.187 |
| CCAATGAC | 0.094 |
| CACCAGAA | -0.0535 |
| AGGACACA | 0.0154 |
| CCAGGCGA | -0.161 |
| CGCCAGAA | -0.0306 |
| ATACACAG | -0.095 |
| CGGGTATC | 0.0428 |
| GCGGTCGA | 0.042 |
| GAAAATCA | 0.291 |
| CCGGCCGC | -0.279 |
| AGGAAATA | 0.221 |
| CTTCACCA | -0.178 |
| AAAAAAGG | 0.0797 |
| AATTGTAT | 0.158 |
| CACTTCCC | 0.0785 |
| AGCCCTGA | 0.0154 |
| GGCCCGTA | 0.0104 |

Continued:

Sequence	PBM E-score
AGATGTAC	0.0677
ATTATCAG	0.0821
ATACAGGC	-0.123
CCTGCAAC	0.0372
ATTAAATA	0.212
CGATGAGA	0.19
AGGGTAAC	-0.188
GTATAGAC	0.0256
AGCAGGTA	-0.151
CCTATGTA	-0.116
GCAGATGA	-0.0493
CAAACCGG	-0.136
CGCAAACG	0.252
ACCAAGGC	-0.275
CGGCGCTA	-0.0694
ACGGTAAC	0.118
AAGGTCCC	-0.0487
AGTGTCCG	0.00779
ATAGTCAC	0.256
AGGATATC	0.24
ATCCGGGA	-0.19
GCTCTGAA	0.0301
CGATTCAA	-0.0109
CAGACCGA	-0.0525
CTTGATCA	0.183

Sequence	PBM E-score
ACGAATCT	0.19
GCCACAAA	0.034
GGGCTCAC	-0.0271
CATGTGGA	-0.0725
ATCACACC	-0.0501
CTCTACAC	-0.0361
AGACGAAC	0.24
ACCAGGTC	-0.154
AGGACGTA	-0.0356
GGTCGGAA	-0.0499
AATGTCAA	-0.00569
AGACAACC	0.0479
CAGTTTTC	0.00232
AGCCTGAG	-0.27
AAAACAGG	-0.148
CAGTCAAC	-0.172
ATGCACAG	-0.151
TATGCAGA	0.128
AGCAGCCC	-0.25
ACATAAAG	0.0586
GGGCTCTA	-0.22
CATTAAGA	-0.0848
